# These are yes or no findings as the source states them, for the method shown. Binding seen in cells or lysates may run through a third protein. Some binding calls cover weakened binding; strength is not graded here.
# Sequences of proteins named here, by UniProt entry; tags and fusion partners are left off. A change or cut given only in a name is not applied to a line headed by its entry. A line that says so, or that is headed by a name, gives the form on record, which may keep a tag or linker. Residues count along the entry.
# UniProt Q96EP0: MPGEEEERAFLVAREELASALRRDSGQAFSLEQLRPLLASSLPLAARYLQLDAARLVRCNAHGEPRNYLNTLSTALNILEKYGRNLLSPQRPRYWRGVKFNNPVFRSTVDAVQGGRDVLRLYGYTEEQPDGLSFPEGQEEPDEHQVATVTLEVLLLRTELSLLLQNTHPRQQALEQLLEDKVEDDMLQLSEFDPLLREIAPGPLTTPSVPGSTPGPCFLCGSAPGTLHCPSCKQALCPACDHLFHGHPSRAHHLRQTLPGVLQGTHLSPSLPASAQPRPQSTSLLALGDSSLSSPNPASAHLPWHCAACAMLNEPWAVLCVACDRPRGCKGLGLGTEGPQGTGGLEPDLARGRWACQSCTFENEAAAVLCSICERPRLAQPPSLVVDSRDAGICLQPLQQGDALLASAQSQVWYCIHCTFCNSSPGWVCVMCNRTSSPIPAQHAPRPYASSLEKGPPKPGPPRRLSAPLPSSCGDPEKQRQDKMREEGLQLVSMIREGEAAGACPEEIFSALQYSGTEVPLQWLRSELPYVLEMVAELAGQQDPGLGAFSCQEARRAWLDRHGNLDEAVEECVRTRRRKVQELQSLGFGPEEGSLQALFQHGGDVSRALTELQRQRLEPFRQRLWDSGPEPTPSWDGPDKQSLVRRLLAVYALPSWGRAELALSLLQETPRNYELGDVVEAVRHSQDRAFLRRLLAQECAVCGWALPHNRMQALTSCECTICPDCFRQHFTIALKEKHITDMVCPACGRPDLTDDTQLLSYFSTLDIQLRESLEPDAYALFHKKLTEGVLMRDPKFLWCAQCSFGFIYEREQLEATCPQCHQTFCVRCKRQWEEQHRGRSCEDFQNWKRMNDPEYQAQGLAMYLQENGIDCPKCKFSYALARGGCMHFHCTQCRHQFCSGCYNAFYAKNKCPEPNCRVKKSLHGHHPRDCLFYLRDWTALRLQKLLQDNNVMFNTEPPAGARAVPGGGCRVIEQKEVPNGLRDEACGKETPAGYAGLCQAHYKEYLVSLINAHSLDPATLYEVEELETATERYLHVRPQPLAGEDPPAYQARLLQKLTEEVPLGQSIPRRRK
# Epitope-tagged HOIP aa 1–436 (PUB, B box and NZF domains): residues 1-436 of Q96EP0
# Biological target: Epitope-tagged HOIP aa 1–436 (PUB, B box and NZF domains) (UniProt Q96EP0)
# Test: co-IP; domains of epitope-tagged HOIP transfected into U2OS and NOD2 cells; immunoprecipitates probed for endogenous OTULIN and endogenous HOIP
substance,measurement,value
endogenous HOIP (from UniProt Q96EP0 1-1072),binding,binds

# Reference: publication PMC4017264, “Molecular Basis and Regulation of OTULIN-LUBAC Interaction” (Molecular Cell, 2014)
